Results deposited as PubChem BioAssay AID1259306 (Sanger Institute, 2017).
Assay: 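Find kinases whose loss reduces colorectal cancer cell viability or aids targeted drugs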 (primary screen). Cell system: human SNU-C5 colorectal cancer cells. Knock-down reagent: siRNA pool against human genes. Conditions: DMSO vehicle alone, or one anchor drug: BYL719 at 1 µM, cetuximab at 5 µg/ml or trametinib at 10 nM, given 24 h into the assay. Detection: 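Replicate-averaged viability against non-targeting pool control, given as fraction and robust z-score; separate synergy scores for BYL719, cetuximab and trametinib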. Scale: robust z-score, knock-down alone and viability, knock-down alone: higher = more viable cells; synergy score with BYL719: higher = stronger synthetic lethality with BYL719; synergy score with cetuximab: higher = stronger synthetic lethality with cetuximab; synergy score with trametinib: higher = stronger synthetic lethality with trametinib. Rule for the call: 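Called essential when the robust z-score for knock-down alone is below -3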. Meaning of the calls: active = essential (knock-down alone); inactive = no change alone.
In all, the deposit lists 794 reagents; below is a random part of them. 11 of them (1.4%) count as active. 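Calls reflect knock-down alone; synergy scores play no part, so knock-downs synergising with a drug can be called no change.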 No viability above 1 is reported: the scale is capped. The record does not give: the amount of reagent, the time to read-out.

Target gene | robust z-score, knock-down alone | viability, knock-down alone | synergy score with BYL719 | synergy score with cetuximab | synergy score with trametinib | call
DLG3 | 0.5 | 0.933 | 0.0836 | 0.118 | 0.0294 | inactive
CLSPN | 0.794 | 0.973 | 0.183 | 0.0454 | -0.0124 | inactive
ULK1 | 0.134 | 0.882 | 0.0457 | 0.074 | 0.174 | inactive
CHD9 | -0.946 | 0.733 | -0.0546 | -0.145 | -0.0924 | inactive
BRSK2 | 0.316 | 0.907 | -0.0476 | -0.0927 | -0.124 | inactive
PSTK | -2.14 | 0.569 | 0.0755 | 0.197 | -0.102 | inactive
CHKA | -0.561 | 0.787 | 0.0433 | -0.213 | -0.135 | inactive
PAK4 | 0.989 | 1 | 0.207 | 0.143 | 0.032 | inactive
PKN1 | 0.564 | 0.942 | 0.0657 | -0.0585 | -0.0639 | inactive
MKNK2 | -0.321 | 0.82 | -0.0721 | -0.0651 | -0.144 | inactive
ALPK3 | -1.64 | 0.638 | -0.225 | 0.0616 | -0.242 | inactive
TPK1 | 0.065 | 0.873 | -0.0945 | 0.0072 | -0.204 | inactive
MOK | 0.898 | 0.987 | 0.0721 | -0.0126 | -0.0434 | inactive
GK2 | 0.617 | 0.949 | 0.0929 | 0.0896 | -0.0577 | inactive
CDKL3 | 0.989 | 1 | 0 | 0 | -0.0624 | inactive
MAP2K4 | -0.71 | 0.766 | -0.109 | -0.0427 | -0.0146 | inactive
MAST2 | 0.4 | 0.919 | 0.0254 | 0.129 | -0.0987 | inactive
TAOK1 | 0.122 | 0.881 | 0.143 | -0.0569 | -0.081 | inactive
TRIB3 | -1.33 | 0.68 | 0.0385 | -0.134 | -0.168 | inactive
MAGI3 | 0.989 | 1 | 0.276 | 0 | 0.00809 | inactive
CIB2 | -2 | 0.589 | -0.035 | -0.228 | -0.182 | inactive
MARK1 | 0.208 | 0.892 | 0.18 | 0.00197 | -0.0216 | inactive
DLG2 | 0.989 | 1 | 0 | 0.0983 | -0.0559 | inactive
RNASEL | 0.989 | 1 | 0.0983 | 0 | 0.191 | inactive
CDK5R1 | -0.604 | 0.78 | 0.0788 | 0.0485 | -0.0329 | inactive
STRADA | -0.483 | 0.797 | -0.0377 | 0.0674 | -0.153 | inactive
MED24 | 0.989 | 1 | 0.19 | 0 | -0.0941 | inactive
MAP3K2 | -0.217 | 0.834 | -0.164 | 0.0709 | -0.177 | inactive
PFKFB4 | -0.217 | 0.834 | -0.024 | 0.0494 | -0.0338 | inactive
SGK1 | 0.989 | 1 | 0.127 | 0 | 0.0447 | inactive
STK33 | -0.523 | 0.792 | 0.124 | -0.112 | 0.0721 | inactive
AMER1 | 0.627 | 0.95 | 0.0604 | -0.0499 | -0.25 | inactive
NME5 | 0.137 | 0.883 | 0.195 | -0.117 | -0.279 | inactive
ASPM | -0.0365 | 0.859 | -0.141 | -0.141 | -0.0706 | inactive

A run of entries of the results above, as a working copy:
Target gene | robust z-score, knock-down alone | viability, knock-down alone | synergy score with BYL719 | synergy score with cetuximab | synergy score with trametinib | call
TAOK1 | 0.122 | 0.881 | 0.143 | -0.0569 | -0.081 | inactive
TRIB3 | -1.33 | 0.68 | 0.0385 | -0.134 | -0.168 | inactive
MAGI3 | 0.989 | 1 | 0.276 | 0 | 0.00809 | inactive
CIB2 | -2 | 0.589 | -0.035 | -0.228 | -0.182 | inactive
